Reference: article PMC3281915, “Integrin β3 Crosstalk with VEGFR Accommodating Tyrosine Phosphorylation as a Regulatory Switch” (PLoS ONE, 2012)
Results are given in words; binding and its absence hold for the method and conditions named. Some binding calls cover weakened binding; strength is not graded here.

Chains of the proteins cited; added tags and fusions are not shown. Residues count along the entry.
UniProt P05106, residues 742-788: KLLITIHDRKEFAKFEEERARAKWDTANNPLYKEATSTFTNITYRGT

What was measured:
[1] = molecular target: GST-β3 (integrin β3 cytoplasmic tail coupled to glutathione S-transferase) (human) (UniProt P05106); assay: transferred NOE (trNOESY) NMR; peptide mixed with GST-β3; 50 mM NaCl, 25 mM Na-phosphate, pH 6.1, 25°C; peptide to protein ratio 50 to 1, peptide 1 mM; both purified
[2] = molecular target: 15N-labeled β3MP (mono-Y747-phosphorylated integrin β3 cytoplasmic tail) (human) (UniProt P05106); assay: NMR titration; 1H-15N HSQC chemical shift titration; unlabeled VpepA titrated into 15N-labeled β3CT; water, 25°C, pH 6.1, β3 30-100 µM; both purified

| binding [2] | Binder | binding [1] |
| --- | --- | --- |
|  | LRTVKRANGGELKTGYLSIV [VpepB, synthetic peptide of the membrane proximal region of VEGFR2] | binds weakly |
|  | RANGGELKTGYLSIVMDPD [VpepC, synthetic peptide of the membrane proximal region of VEGFR2] | binds weakly |
| binds weakly | LRTVKRANGGELKTGYLSIVMDPDELPLDE [VpepA, synthetic peptide of the thirty membrane proximal residues of the VEGFR2 cytoplasmic domain] |  |
